In the supplement of paper PMC4635364:
Counter-ions that a name gives are not always drawn. Some of the results follow. Single values are uncertain here, since repeats match poorly.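 ReNCell VM, a human fetal ventral-midbrain neural progenitor line, was differentiated without mitogens. Blinded raters scored images stained for doublecortin (early neurons) or tyrosine hydroxylase (dopaminergic neurons) against untreated wells (0 = no change). Scores were averaged across repeats and both raters, and compounds averaging 2 or more were selected as hits for retesting.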

System: ReNCell VM
Experiment: dopaminergic neuron differentiation score (TH+ cell fraction vs untreated, manual image score) (score (0 to 3)); higher = more TH+ dopaminergic neuron differentiation
Details: library: Natural; 2 uM; 4 weeks; BDNF 10 ng/ml + GDNF 10 ng/ml

SMILES | dopaminergic neuron differentiation score
CC(=O)OC[C@]12C[C@H](OC(=O)CC(C)C)C(C)=C[C@H]1O[C@@H]1[C@H](O)[C@@H](OC(C)=O)[C@@]2(C)[C@]12CO2 [t2 toxin] | inactive: 0
C/C=C1/CN2CC[C@]34C(=C(C=O)C1CC23)Nc1c(O)cccc14 (stereo partly specified) [vincanidine] | inactive: 0
C1=C2CCCN[C@H]2[C@@H]2C[C@H]1[C@H]1CCCCN1C2 [aloperine] | inactive: 0

Same assay, conditions: library: Prestwick; 2 uM; 4 weeks; BDNF 10 ng/ml + GDNF 10 ng/ml

SMILES | dopaminergic neuron differentiation score
CCC1(c2ccc(N)cc2)CCC(=O)NC1=O (stereo unspecified) [Glutethimide, para-amino] | inactive: 0
C[N+]12CCC(CC1)C(OC(=O)C(O)(c1ccccc1)c1ccccc1)C2 (stereo unspecified) [Clidinium bromide] | inactive: 0
CCCN1C[C@H](CSC)C[C@@H]2c3cccc4[nH]cc(c34)C[C@H]21 [Pergolide mesylate] | inactive: 0
CCN(C)C(=O)Oc1cccc([C@H](C)N(C)C)c1 [Rivastigmine] | inactive: 0
CCN[C@@H](C)Cc1cccc(C(F)(F)F)c1 [Dexfenfluramine hydrochloride] | inactive: 0
O[C@@H]1CCCC[C@H]1N1CCC(c2ccccc2)CC1 [L(-)-vesamicol hydrochloride] | inactive: 0

Same assay, conditions: library: Spectrum; 2 uM; 4 weeks; BDNF 10 ng/ml + GDNF 10 ng/ml

SMILES | dopaminergic neuron differentiation score
Oc1noc2c1CCNC2 | inactive: 0
O=C1C=C2C(=CCOC2O)O1 (stereo unspecified) | inactive: 0
CC(C)(O)C(Cl)(Cl)Cl | inactive: 0
CC(=O)C1CCC2C3CCC4C[C@H](O)CCC4(C)C3C[C@H](O)C12C (stereo partly drawn) [DIHYDROXY (3alpha,12alpha)PREGNAN-20-ONE] | inactive: 0
COC(=O)C1=CCCN(C)C1 | inactive: 0
O=C([O-])Cc1ccccc1.[Na+] | inactive: 0
CCOC(=O)c1cncn1[C@H](C)c1ccccc1 | inactive: 0
CC[C@H]1CN2CCc3cc(OC)c(OC)cc3[C@@H]2C[C@@H]1C[C@H]1NCCc2cc(OC)c(OC)cc21 | inactive: 0
O=C1C2CC=CCC2C(=O)N1SC(Cl)(Cl)Cl (stereo unspecified) | inactive: 0
COc1cc2c(cc1OC)[C@@]13CCN4CC5=CCO[C@H]6CC(=O)N2[C@H]1[C@H]6[C@H]5C[C@H]43 | inactive: 0
Cc1[nH]c2ccccc2c1CN(C)C | inactive: 1
CC[C@@]1(O)C[C@H](O[C@H]2C[C@H](N(C)C)[C@H](O)[C@H](C)O2)c2c(cc3c(c2O)C(=O)c2c(O)ccc(O)c2C3=O)[C@H]1C(=O)OC | inactive: 0
NCC(=O)c1ccccc1 | inactive: 0
O=C(O)CCCO | inactive: 0
C[N+]1(C)[C@@H]2C[C@@H](OC(=O)[C@H](CO)c3ccccc3)C[C@H]1[C@@H]1O[C@@H]12 | inactive: 0
CC[C@@]1(O)C(=O)OCc2c1cc1n(c2=O)Cc2cc3ccccc3nc2-1 | inactive: 0
C=CC[C@]1(O)CC[C@H]2[C@@H]3CCC4=CC(=O)CCC4=C3C=C[C@@]21C | inactive: 0

Rewritten as comma-separated lines: entries from further up.
SMILES,dopaminergic neuron differentiation score
"CC(=O)C1CCC2C3CCC4C[C@H](O)CCC4(C)C3C[C@H](O)C12C (stereo partly drawn) [DIHYDROXY (3alpha,12alpha)PREGNAN-20-ONE]",inactive: 0
COC(=O)C1=CCCN(C)C1,inactive: 0
O=C([O-])Cc1ccccc1.[Na+],inactive: 0
CCOC(=O)c1cncn1[C@H](C)c1ccccc1,inactive: 0
CC[C@H]1CN2CCc3cc(OC)c(OC)cc3[C@@H]2C[C@@H]1C[C@H]1NCCc2cc(OC)c(OC)cc21,inactive: 0
O=C1C2CC=CCC2C(=O)N1SC(Cl)(Cl)Cl (stereo unspecified),inactive: 0
COc1cc2c(cc1OC)[C@@]13CCN4CC5=CCO[C@H]6CC(=O)N2[C@H]1[C@H]6[C@H]5C[C@H]43,inactive: 0
Cc1[nH]c2ccccc2c1CN(C)C,inactive: 1

Same assay, conditions: library: Tocriscreen; 2 uM; 4 weeks; BDNF 10 ng/ml + GDNF 10 ng/ml

SMILES | dopaminergic neuron differentiation score
CN1CC[C@@H]2CN3CCc4cccc(c43)[C@@H]2C1 [SDZ SER 082 fumarate] | inactive: 0
NC(N)=Nc1ccc2[nH]c3c(c2c1)C[C@@]1(O)[C@H]2Cc4ccc(O)c5c4[C@@]1(CCN2CC1CC1)[C@H]3O5 [GNTI dihydrochloride] | inactive: 0
O=C1/C(=C/c2ccccc2)C[C@@]2(O)[C@H]3Cc4ccc(O)c5c4[C@@]2(CCN3CC2CC2)[C@H]1O5 [BNTX maleate] | inactive: 0
CNCCc1cnc[nH]1 [N à-Methylhistamine dihydrochloride] | inactive: 0
COc1cc(N)c(Cl)cc1C(=O)NC1CN2CCC1CC2 (stereo unspecified) [Zacopride hydrochloride] | inactive: 0
